Measurements from PubChem BioAssay AID2685 (National Center for Advancing Translational Sciences (NCATS), 2010).
Some of the results follow. Shown are side measurements of this screen, not its main read-out; they come without a call. Most of these compounds were active or inconclusive in the main read-out, so they are no random draw. The note in brackets gives the kind of curve behind each potency; many fits are weak.

Experiment: qHTS Assay for Lipid Storage Modulators in Drosophila S3 Cells;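 on cell number change: cells counted by Cell Tracker Red CMTPX staining in the red channel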
Conditions: BODIPY lipid droplet fluorescence, 18-24 h; for cell number change: measured here: cell count max response, cells fed with added oleic acid
In short: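 Drosophila S3 cells got compounds at several concentrations plus oleic acid (400 uM solution). Laser-scanning cytometry with 488 nm excitation read lipid droplets at 500-530 nm and cells at 575-640 nm. Percent activity was relative to 20 uM Triacsin C.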

[1] = measured here: lipid fluorescence (Fed channel) AC50, cells fed with added oleic acid
[2] = measured here: cell number channel AC50, cells fed with added oleic acid

Cc1ccc(Cl)cc1-n1c(=O)cc(N2CC(C)OC(C)C2)[nH]c1=O (stereo not given)
AC50 [1]: 29.1 µM [falling, single point]

C/C(=N\NC(=O)CCc1ccc(S(=O)(=O)N2CCOCC2)cc1)c1ccc(OC(F)F)cc1
AC50 [1]: 14.6 µM [falling, partial curve, poor fit]

COc1ccc(C(C(=O)NC2CCCC2)N(Cc2ccc(C)cc2)C(=O)c2ccn[nH]2)cc1OC (stereo not given)
cell number change: -16.4% | AC50 [1]: 6.51 µM [falling, single point]

Cc1ccc(C(=O)CN2CCN(c3ccccn3)CC2)c(C)c1
cell number change: -12.5%

Cc1nc2scc(C)n2c(=O)c1S(=O)(=O)Nc1ccc(N2CCOCC2)c(Cl)c1
cell number change: -1.32%

COc1ccc(OC)c(NC(=O)CCCCCn2nnc3ccccc3c2=O)c1
cell number change: 22.7% | AC50 [1]: 18.4 µM [rising, single point]

CCOc1ccccc1N1CCN(CC(=O)NCCc2ccc(S(N)(=O)=O)cc2)CC1
cell number change: -22.5% | AC50 [2]: 0.00461 µM [falling, full curve, poor fit]

COc1cc(OC)c(C(=O)NCCCn2ccnc2)cc1OC
cell number change: -4.48%

O=S(=O)(NCc1cc(-c2ccc(Cl)cc2)no1)c1ccc(Cl)cc1
cell number change: -30.2% | AC50 [2]: 18.4 µM [falling, single point]

Cn1cc(S(=O)(=O)NCc2ccc(Cl)cc2)c(=O)n(C)c1=O
cell number change: -23.7% | AC50 [1]: 9.2 µM [falling, partial curve, poor fit]

O=c1sc2ccccc2c(=O)n1Cc1ccccc1F
cell number change: 13.3% | AC50 [2]: 0.0517 µM [falling, full curve, poor fit]

Cc1c(C(=O)N2CCc3ccccc32)oc2c1C(=O)CC(C)(C)C2
AC50 [2]: 4.61 µM [rising, single point] | AC50 [1]: 2.31 µM [rising, partial curve]

Cc1ccccc1C(=O)NC1CCN(C(=O)Nc2ccccc2Cl)CC1
cell number change: -39.1% | AC50 [2]: 32.6 µM [falling, single point]

O=C(NCCc1cccc(Cl)c1)c1cccnc1
AC50 [2]: 6.51 µM [rising, partial curve, poor fit]

O=C(NCCc1c[nH]c2ccccc12)c1cccnc1
cell number change: 25.8% | AC50 [2]: 3.66 µM [rising, full curve, poor fit] | AC50 [1]: 0.146 µM [falling, full curve, poor fit]

O=C(Nc1ccccc1C(=O)NCCN1CCOCC1)c1ccc(Cl)cc1Cl
cell number change: 2.47% | AC50 [1]: 2.06 µM [falling, single point]

CC(OC(=O)CCCN=C1NS(=O)(=O)c2ccccc21)C(=O)Nc1ccccc1F (stereo not given)
AC50 [2]: 0.116 µM [rising, full curve, poor fit]

O=C(Nc1cccc(Cl)c1)c1ccc(F)c(S(=O)(=O)NCc2cccs2)c1
cell number change: -15.8%

N#CN=C1CCCCCN1CC(N)=O
AC50 [1]: 2.31 µM [falling, partial curve, poor fit]

COc1ccc(Cl)cc1NC(=O)Cn1c(NCCO)nc2ccccc21
AC50 [1]: 29.1 µM [rising, single point]

COc1ccc(C2CC(c3cccs3)=NN2C(=O)CSc2nc3ccccc3o2)cc1 (stereo not given)
AC50 [1]: 14.6 µM [falling, partial curve]

Cc1ccccc1C(=O)Nc1ccc(N(C)C)c2ccccc12
cell number change: 2.55%

Cn1cccc1Cc1nnc(SCC(=O)Nc2ccc3c(c2)OCO3)n1CCc1ccccc1
cell number change: -1.99% | AC50 [1]: 0.731 µM [rising, partial curve]

CCCc1nc2oc3c(NCCN4CCOCC4)ncnc3c2c2c1CCCC2
cell number change: -12.7%

O=C(O)C1CCC(N2C(=O)C3CCCCC3C2=O)CC1 (stereo not given)
cell number change: -154% | AC50 [2]: 29.1 µM [falling, single point] | AC50 [1]: 6.51 µM [falling, single point]

COc1cccc(NC(=S)N(CCCN2CCOCC2)Cc2cn(C)c3ccccc23)c1
cell number change: -8.99% | AC50 [2]: 6.51 µM [rising, single point] | AC50 [1]: 6.51 µM [rising, single point]

O=C1CC(c2ccccc2)CN1C(=O)c1cccc([N+](=O)[O-])c1 (stereo not given)
cell number change: 13.6% | AC50 [1]: 0.461 µM [falling, single point]

CCOC(=O)Cc1csc(NC(=O)CSc2nc(N)c3c(C)c(C)sc3n2)n1
AC50 [1]: 0.58 µM [rising, single point]

CCOc1ccc(Nc2ncnc3ccc([N+](=O)[O-])cc23)cc1
cell number change: 38.5% | AC50 [2]: 29.1 µM [rising, single point]

CCOC(=O)c1[nH]c2ccccc2c1NC(=O)CCN1CCN(C(=O)OCC)CC1
cell number change: 25.4% | AC50 [1]: 18.4 µM [rising, single point]

COc1cc(NC(=O)COc2cc(O)c3c(c2)OC(C)(C)CC3=O)cc(OC)c1OC
cell number change: -27.5% | AC50 [1]: 29.1 µM [falling, single point]

Cc1ccc(S(=O)(=O)Nc2c(C)[nH]c(=O)[nH]c2=O)cc1C
cell number change: -24.9% | AC50 [1]: 29.1 µM [falling, single point]

COc1ccccc1NC(=O)CN1C(=O)NC2(CCCc3ccccc32)C1=O (stereo not given)
cell number change: 4.76% | AC50 [1]: 2.06 µM [falling, partial curve, poor fit]
